Assay results: patent US20170095440A1, “METHOD OF TREATING CANINE PANCREATITIS” (CK9, LLC, priority 2014, published 2017)

Test system: dogs with suspected chronic pancreatitis
Experiment: Serum cobalamin before and after treatment, clinical trial
Type: in vivo, dog

## CN(C)C(=O)COC(=O)Cc1ccc(OC(=O)c2ccc(NC(=N)N)cc2)cc1 [Camostat Mesilate, N,N-dimethylcarbamoylmethyl-4-(4-guanidinobenzoyloxy)phenylacetate methanesulfonate]
4 mg/kg q 8 hrs, n=12, pre-treatment mean 868, post SD ±223, p=0.0363
  Serum cobalamin concentration post-treatment (mean): 695 ng/L
8 mg/kg q 8 hrs, n=17, pre-treatment mean 748, post SD ±263, p=0.0429
  Serum cobalamin concentration post-treatment (mean): 629 ng/L
All treated dogs combined, n=29, pre-treatment median 843, post range 220-1001, p=0.0007
  Serum cobalamin concentration post-treatment (median): 681 ng/L
